± gives the standard deviation of the averaged measurements. Only a part is listed here, and it is no random draw. Small differences around the control level are noise.

Amino acid sequences for entries named in this document (tags omitted). A change or cut given only in a name is not applied to a line headed by its entry.
UniProt Q9NRP0: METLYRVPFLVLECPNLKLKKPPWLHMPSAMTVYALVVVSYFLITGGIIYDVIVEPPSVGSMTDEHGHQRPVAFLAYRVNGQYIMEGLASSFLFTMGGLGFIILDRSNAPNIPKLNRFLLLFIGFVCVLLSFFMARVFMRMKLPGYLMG
UniProt Q9NYP9: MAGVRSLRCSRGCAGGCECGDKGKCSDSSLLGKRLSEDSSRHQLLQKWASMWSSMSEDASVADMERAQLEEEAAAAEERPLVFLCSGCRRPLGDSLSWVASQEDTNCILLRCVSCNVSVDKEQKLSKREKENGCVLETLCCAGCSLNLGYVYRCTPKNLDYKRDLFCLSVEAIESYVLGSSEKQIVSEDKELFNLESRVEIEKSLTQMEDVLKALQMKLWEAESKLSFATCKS
UniProt Q9NX62: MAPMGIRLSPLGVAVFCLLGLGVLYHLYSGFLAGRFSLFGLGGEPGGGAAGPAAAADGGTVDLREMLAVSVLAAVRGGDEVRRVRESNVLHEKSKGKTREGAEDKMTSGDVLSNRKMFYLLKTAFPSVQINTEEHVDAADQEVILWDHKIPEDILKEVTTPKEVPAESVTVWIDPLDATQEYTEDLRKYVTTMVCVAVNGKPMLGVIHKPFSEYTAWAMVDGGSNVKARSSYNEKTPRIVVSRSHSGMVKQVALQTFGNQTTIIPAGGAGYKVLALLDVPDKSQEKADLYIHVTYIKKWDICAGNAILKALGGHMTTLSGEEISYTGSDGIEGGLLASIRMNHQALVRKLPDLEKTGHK
UniProt Q9NWQ8: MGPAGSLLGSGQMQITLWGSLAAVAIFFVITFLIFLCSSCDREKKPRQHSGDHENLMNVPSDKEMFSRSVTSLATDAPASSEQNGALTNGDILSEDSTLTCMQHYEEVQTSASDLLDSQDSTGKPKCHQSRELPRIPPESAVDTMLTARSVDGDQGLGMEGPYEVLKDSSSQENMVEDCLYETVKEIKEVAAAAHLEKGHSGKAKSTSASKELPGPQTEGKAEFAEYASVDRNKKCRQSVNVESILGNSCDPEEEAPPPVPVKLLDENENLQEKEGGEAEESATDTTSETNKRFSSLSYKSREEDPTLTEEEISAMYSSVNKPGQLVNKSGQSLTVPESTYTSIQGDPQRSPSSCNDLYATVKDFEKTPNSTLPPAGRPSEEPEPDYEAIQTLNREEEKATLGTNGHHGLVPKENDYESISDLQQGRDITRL
UniProt Q9NWS8: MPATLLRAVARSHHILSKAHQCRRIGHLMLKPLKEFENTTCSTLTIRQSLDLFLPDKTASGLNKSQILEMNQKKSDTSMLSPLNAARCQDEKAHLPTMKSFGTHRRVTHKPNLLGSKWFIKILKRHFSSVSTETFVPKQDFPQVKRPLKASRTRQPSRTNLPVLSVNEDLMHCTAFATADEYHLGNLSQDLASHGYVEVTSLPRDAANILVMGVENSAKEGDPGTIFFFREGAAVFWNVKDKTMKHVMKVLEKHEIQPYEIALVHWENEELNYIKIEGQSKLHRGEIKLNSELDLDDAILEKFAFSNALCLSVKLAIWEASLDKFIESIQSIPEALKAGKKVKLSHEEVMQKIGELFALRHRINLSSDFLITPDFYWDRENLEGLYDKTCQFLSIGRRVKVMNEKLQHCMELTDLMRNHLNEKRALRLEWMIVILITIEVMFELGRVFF
UniProt Q9NRP2: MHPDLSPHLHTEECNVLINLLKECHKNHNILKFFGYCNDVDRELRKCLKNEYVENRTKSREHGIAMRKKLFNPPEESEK
UniProt Q9P0B6: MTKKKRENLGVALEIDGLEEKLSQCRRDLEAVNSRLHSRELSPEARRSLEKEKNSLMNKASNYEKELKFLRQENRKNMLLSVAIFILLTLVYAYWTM
UniProt Q9NVP1: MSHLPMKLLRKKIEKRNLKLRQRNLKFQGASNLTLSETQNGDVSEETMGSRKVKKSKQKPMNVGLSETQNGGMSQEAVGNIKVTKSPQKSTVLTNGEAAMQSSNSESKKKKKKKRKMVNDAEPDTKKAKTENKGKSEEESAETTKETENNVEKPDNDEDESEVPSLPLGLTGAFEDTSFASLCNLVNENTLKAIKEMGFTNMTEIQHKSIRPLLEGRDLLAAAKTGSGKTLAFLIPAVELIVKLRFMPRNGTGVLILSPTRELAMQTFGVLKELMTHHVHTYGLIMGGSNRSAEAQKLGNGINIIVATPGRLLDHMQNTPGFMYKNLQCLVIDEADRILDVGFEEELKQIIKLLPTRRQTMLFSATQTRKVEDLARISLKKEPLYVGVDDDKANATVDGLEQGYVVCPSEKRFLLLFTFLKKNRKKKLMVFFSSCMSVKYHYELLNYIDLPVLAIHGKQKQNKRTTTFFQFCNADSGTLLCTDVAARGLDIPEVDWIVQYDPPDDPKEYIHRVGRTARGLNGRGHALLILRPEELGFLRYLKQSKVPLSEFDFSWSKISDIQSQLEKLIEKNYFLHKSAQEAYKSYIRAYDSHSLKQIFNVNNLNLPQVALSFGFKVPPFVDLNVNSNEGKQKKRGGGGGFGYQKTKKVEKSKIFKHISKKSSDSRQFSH
UniProt Q9NZJ7, whole entry: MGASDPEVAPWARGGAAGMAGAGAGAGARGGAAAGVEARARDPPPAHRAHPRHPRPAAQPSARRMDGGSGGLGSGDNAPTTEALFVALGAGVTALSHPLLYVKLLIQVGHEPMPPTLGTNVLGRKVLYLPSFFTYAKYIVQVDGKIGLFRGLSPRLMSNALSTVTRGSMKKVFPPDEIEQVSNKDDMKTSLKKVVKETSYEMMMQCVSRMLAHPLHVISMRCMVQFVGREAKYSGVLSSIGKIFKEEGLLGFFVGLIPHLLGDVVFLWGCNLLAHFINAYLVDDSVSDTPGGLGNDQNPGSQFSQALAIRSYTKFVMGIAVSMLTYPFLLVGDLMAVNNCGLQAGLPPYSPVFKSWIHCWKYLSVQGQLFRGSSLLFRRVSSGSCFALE
UniProt Q9UBL3, whole entry: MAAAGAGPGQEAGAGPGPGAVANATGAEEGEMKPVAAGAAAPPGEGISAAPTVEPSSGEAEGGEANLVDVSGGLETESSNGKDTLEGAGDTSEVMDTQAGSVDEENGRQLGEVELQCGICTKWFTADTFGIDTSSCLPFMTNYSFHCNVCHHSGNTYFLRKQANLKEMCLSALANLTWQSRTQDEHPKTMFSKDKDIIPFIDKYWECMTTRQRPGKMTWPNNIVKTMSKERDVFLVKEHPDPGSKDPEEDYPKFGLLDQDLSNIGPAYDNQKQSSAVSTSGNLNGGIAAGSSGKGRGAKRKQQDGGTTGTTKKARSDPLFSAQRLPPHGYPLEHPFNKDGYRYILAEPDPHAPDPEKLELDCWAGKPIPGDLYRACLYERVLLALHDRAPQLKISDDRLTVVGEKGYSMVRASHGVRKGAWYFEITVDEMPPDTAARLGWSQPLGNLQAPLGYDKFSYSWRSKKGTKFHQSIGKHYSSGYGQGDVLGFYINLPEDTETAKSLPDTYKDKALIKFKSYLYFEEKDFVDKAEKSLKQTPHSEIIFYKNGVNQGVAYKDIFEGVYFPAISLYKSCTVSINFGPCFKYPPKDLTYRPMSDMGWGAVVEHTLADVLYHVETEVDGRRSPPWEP
UniProt Q9NX14, whole entry: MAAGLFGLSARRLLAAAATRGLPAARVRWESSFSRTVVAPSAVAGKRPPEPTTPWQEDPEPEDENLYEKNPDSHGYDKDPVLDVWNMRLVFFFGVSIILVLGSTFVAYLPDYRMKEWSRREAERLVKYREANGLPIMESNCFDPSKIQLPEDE
UniProt Q9NXF7, whole entry: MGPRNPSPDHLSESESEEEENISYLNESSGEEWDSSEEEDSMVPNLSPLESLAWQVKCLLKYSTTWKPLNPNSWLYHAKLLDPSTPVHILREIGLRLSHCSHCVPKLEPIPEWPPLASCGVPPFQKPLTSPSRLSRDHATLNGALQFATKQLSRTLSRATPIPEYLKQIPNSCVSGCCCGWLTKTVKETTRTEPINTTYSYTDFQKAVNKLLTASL
UniProt Q9P2Y5: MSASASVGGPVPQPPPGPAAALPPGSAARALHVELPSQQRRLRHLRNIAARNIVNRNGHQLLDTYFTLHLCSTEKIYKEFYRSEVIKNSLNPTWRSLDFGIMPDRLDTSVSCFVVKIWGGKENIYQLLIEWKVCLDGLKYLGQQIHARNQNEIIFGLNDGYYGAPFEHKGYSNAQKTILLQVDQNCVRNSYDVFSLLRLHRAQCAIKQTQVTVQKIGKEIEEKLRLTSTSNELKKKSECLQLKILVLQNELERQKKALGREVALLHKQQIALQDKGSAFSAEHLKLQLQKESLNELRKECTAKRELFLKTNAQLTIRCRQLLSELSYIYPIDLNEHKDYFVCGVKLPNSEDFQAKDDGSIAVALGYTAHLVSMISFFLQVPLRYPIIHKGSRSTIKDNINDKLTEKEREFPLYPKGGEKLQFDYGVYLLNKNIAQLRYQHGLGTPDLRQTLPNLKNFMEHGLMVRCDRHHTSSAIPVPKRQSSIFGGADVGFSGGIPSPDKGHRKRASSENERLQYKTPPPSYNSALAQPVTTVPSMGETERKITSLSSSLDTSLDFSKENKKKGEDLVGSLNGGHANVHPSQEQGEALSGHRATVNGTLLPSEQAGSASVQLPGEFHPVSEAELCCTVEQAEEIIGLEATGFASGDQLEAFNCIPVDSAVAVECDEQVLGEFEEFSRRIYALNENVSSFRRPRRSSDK
UniProt Q9NQR4: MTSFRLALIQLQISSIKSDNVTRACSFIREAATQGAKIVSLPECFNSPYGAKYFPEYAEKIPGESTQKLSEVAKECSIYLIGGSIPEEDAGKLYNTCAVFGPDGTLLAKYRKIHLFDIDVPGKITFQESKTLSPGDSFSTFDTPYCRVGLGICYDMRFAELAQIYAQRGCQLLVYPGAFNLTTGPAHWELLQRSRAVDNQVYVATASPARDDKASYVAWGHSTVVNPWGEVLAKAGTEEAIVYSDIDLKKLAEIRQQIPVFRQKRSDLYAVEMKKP
UniProt Q9NZD8: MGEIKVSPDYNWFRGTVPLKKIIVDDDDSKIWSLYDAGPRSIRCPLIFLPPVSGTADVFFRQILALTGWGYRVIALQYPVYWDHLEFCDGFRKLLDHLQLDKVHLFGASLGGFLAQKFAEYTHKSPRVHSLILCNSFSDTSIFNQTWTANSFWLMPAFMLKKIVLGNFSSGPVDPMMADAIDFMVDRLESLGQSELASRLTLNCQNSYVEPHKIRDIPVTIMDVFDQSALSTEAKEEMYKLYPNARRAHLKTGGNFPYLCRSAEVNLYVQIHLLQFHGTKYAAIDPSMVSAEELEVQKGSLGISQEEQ
UniProt Q9P1W8, whole entry: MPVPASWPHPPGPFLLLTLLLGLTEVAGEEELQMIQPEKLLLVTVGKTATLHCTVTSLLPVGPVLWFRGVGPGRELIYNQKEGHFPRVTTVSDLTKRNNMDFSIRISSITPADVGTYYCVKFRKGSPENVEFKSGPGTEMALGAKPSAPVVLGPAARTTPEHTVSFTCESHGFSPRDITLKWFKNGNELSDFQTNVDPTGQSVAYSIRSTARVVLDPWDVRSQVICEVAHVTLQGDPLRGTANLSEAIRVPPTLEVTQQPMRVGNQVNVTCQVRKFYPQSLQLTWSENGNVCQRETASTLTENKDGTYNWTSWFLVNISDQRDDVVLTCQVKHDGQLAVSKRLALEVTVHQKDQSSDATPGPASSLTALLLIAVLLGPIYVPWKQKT
UniProt Q9NR50: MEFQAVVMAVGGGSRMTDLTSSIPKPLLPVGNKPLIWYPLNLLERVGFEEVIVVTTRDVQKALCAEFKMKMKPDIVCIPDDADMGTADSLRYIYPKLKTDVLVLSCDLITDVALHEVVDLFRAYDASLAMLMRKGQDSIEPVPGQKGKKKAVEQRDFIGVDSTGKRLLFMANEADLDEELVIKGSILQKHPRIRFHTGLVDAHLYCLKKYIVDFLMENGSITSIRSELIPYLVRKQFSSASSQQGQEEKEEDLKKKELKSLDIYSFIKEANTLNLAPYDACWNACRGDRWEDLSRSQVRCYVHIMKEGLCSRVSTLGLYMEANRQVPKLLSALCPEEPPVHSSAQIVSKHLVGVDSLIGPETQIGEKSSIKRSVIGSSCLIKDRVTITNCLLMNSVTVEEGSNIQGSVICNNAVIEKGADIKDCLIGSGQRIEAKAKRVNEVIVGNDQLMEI
UniProt Q9NYR9: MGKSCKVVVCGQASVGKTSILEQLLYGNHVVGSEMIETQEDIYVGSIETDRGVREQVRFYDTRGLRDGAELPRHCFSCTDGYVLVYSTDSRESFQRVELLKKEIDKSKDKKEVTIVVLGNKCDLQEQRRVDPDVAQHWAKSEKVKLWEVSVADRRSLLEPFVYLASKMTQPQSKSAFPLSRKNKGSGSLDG
UniProt Q9NW68: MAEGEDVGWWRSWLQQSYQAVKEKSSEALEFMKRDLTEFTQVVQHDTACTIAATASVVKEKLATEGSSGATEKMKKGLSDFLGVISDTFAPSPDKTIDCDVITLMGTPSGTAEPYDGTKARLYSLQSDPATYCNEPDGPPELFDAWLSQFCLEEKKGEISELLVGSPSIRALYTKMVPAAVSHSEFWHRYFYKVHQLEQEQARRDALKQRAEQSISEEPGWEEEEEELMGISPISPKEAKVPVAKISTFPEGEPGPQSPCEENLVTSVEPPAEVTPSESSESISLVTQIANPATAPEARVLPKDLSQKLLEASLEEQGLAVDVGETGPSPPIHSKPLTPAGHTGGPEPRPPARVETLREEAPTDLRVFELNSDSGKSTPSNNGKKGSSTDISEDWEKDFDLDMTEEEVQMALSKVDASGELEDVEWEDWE

Compound in the test: Nc1ncnc2c1ncn2[C@@H]1O[C@H](COP(=O)(O)OP(=O)(O)NP(=O)(O)O)[C@@H](O)[C@H]1O [adenylyl imidodiphosphate]
The test can be described thus: NP40-soluble protein abundance relative to vehicle (solubility fold change) (ratio); higher = more soluble protein in presence of AMP-PNP. In outline:
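Each value is a fold change relative to the detergent-processed vehicle, calculated per replicate from vsn-normalised intensities. Jurkat crude lysate received eight concentrations (0.1 to 10 mM) for 10 min at room temperature and 3 min at 37 °C, then was solubilised in 0.8% NP40 with benzonase (60 min, 4 °C). The ultracentrifuged supernatant was TMT-labelled and run by LC-MS/MS in three independent experiments.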

Turning to OSTC (UniProt Q9NRP0), the NP40-soluble protein abundance by setting is: (concentration: 0.1mM) 1.03 ± 0.0054; (concentration: 0.5mM) 1.03 ± 0.03.
For the target MRPL16 (UniProt Q9NX20), the NP40-soluble protein abundance (concentration: 0.1mM) was 1 ± 0.04 and the NP40-soluble protein abundance (concentration: 0.5mM) came to 0.998 ± 0.056.
For UniProt Q9NVA1 and related entries the same measures were 1.02 ± 0.043 and 0.986 ± 0.037.
Taken in the same sequence, the figures for UniProt Q9NQ66 and related entries were 1.03 ± 0.026 and 1.01 ± 0.011.
For PHPT1 (UniProt Q9NRX4) the same measures were 0.989 ± 0.04 and 1.01 ± 0.026.
Turning to UniProt Q9P035 and related entries, the NP40-soluble protein abundance turned out to be 0.9512 ± 0.0088 (concentration: 0.1mM) and 0.967 ± 0.035 (concentration: 0.5mM).
For UniProt Q9NVX2 and related entries the same measures were 0.992 ± 0.035 and 0.972 ± 0.076.
Taken in the same sequence, the figures for NKIRAS1 (UniProt Q9NYS0) were 1 ± 0.02 and 0.994 ± 0.014.
Taken in the same sequence, the figures for UniProt Q9NYP9 were 0.987 ± 0.025 and 0.961 ± 0.047.
For the target IMPAD1 (UniProt Q9NX62), the NP40-soluble protein abundance was 0.98 ± 0.018 (concentration: 0.1mM) and 0.995 ± 0.033 (concentration: 0.5mM).
Taken in the same sequence, the figures for TMOD3 (UniProt Q9NYL9) were 1.02 ± 0.029 and 1.03 ± 0.054.
Taken in the same sequence, the figures for PAG1 (UniProt Q9NWQ8) were 0.993 ± 0.037 and 1.03 ± 0.069.
Taken in the same sequence, the figures for DPP3 (UniProt Q9NY33) were 0.995 ± 0.014 and 1 ± 0.037.
In the case of UniProt Q9P260 and related entries, the NP40-soluble protein abundance came out at 1.018 ± 0.0095 (concentration: 0.1mM) and 0.993 ± 0.014 (concentration: 0.5mM).
For BAZ1A (UniProt Q9NRL2) the same measures were 0.999 ± 0.029 and 1.04 ± 0.043.
For the target RPRD1B (UniProt Q9NQG5), the NP40-soluble protein abundance was determined as 0.966 ± 0.041 (concentration: 0.1mM) and 0.979 ± 0.044 (concentration: 0.5mM).
Taken in the same sequence, the figures for UTP6 (UniProt Q9NYH9) were 1.03 ± 0.048 and 0.986 ± 0.018.
For UniProt Q9P0J1 and related entries the same measures were 0.997 ± 0.012 and 0.983 ± 0.03.
For RCC2 (UniProt Q9P258) the same measures were 0.9916 ± 0.0042 and 0.994 ± 0.02.
Regarding UniProt Q9NUU7 and related entries, the NP40-soluble protein abundance runs as follows: (concentration: 0.1mM) 1.06 ± 0.0087; (concentration: 0.5mM) 1.04 ± 0.028.
Taken in the same sequence, the figures for RMND1 (UniProt Q9NWS8) were 0.991 ± 0.061 and 0.985 ± 0.031.
Taken in the same sequence, the figures for UniProt Q9NRP2 and related entries were 0.984 ± 0.019 and 1 ± 0.063.
On to UniProt Q9P0B6, for which the NP40-soluble protein abundance turned out to be 1.02 ± 0.014 (concentration: 0.1mM) and 1.04 ± 0.013 (concentration: 0.5mM).
Taken in the same sequence, the figures for DDX18 (UniProt Q9NVP1) were 1.02 ± 0.039 and 1.01 ± 0.08.
Taken in the same sequence, the figures for UniProt Q9NZJ7 and related entries were 0.982 ± 0.053 and 0.958 ± 0.055.
For MED4 (UniProt Q9NPJ6) the same measures were 0.994 ± 0.015 and 1.01 ± 0.025.
Turning to UniProt Q9UBL3 and related entries, the NP40-soluble protein abundance runs as follows: (concentration: 0.1mM) 0.98 ± 0.023; (concentration: 0.5mM) 0.997 ± 0.022.
For GNL3L (UniProt Q9NVN8) the same measures were 1.03 ± 0.029 and 1.02 ± 0.06.
Consider TBC1D22B (UniProt Q9NU19), for which the NP40-soluble protein abundance (concentration: 0.1mM) was 1 ± 0.0064 and the NP40-soluble protein abundance (concentration: 0.5mM) came to 1 ± 0.02.
For UniProt Q9NXR7 the same measures were 1.02 ± 0.019 and 1.01 ± 0.049.
On to IGF2BP1 (UniProt Q9NZI8), for which the NP40-soluble protein abundance is, setting by setting: (concentration: 0.1mM) 0.982 ± 0.029; (concentration: 0.5mM) 1.03 ± 0.046.
For CTTNBP2NL (UniProt Q9P2B4) the same measures were 1 ± 0.032 and 0.975 ± 0.058.
Taken in the same sequence, the figures for EXOSC3 (UniProt Q9NQT5) were 1.04 ± 0.048 and 0.997 ± 0.031.
Taken in the same sequence, the figures for UniProt Q9NUB1 and related entries were 1 ± 0.031 and 0.975 ± 0.071.
As to UniProt Q9NX04 and related entries, the NP40-soluble protein abundance by setting is: (concentration: 0.1mM) 1.04 ± 0.026; (concentration: 0.5mM) 1.02 ± 0.025.
For UniProt Q9NRG9 and related entries the same measures were 0.963 ± 0.035 and 0.974 ± 0.034.
For UniProt Q9NX14 and related entries, the NP40-soluble protein abundance (concentration: 0.1mM) was 1.1 ± 0.036 and the NP40-soluble protein abundance (concentration: 0.5mM) came to 1.03 ± 0.031.
Taken in the same sequence, the figures for UniProt Q9P107 and related entries were 0.993 ± 0.044 and 0.997 ± 0.063.
For UniProt Q9NXF7 the same measures were 0.98 ± 0.027 and 0.974 ± 0.05.
Taken in the same sequence, the figures for UniProt Q9NVH2 and related entries were 0.992 ± 0.014 and 1.01 ± 0.025.
On to UniProt Q9P0L0 and related entries, for which the NP40-soluble protein abundance was found to be 0.99 ± 0.017 (concentration: 0.1mM) and 1.03 ± 0.066 (concentration: 0.5mM).
For UVRAG (UniProt Q9P2Y5) the same measures were 1.01 ± 0.028 and 0.982 ± 0.028.
Taken in the same sequence, the figures for UniProt Q9NVH1 and related entries were 1.014 ± 0.0026 and 1.01 ± 0.027.
Turning to CCDC88C (UniProt Q9P219), the NP40-soluble protein abundance was determined as 0.959 ± 0.032 (concentration: 0.1mM) and 0.938 ± 0.017 (concentration: 0.5mM).
Taken in the same sequence, the figures for UniProt Q9NUV9 and related entries were 1.02 ± 0.013 and 1.05 ± 0.058.
Consider RBM12 (UniProt Q9NTZ6), for which the NP40-soluble protein abundance (concentration: 0.1mM) was 0.97 ± 0.012 and the NP40-soluble protein abundance (concentration: 0.5mM) came to 0.959 ± 0.02.
Take UniProt Q9NXH9 and related entries: the NP40-soluble protein abundance was found to be 1.01 ± 0.042 (concentration: 0.1mM) and 0.982 ± 0.034 (concentration: 0.5mM).
Taken in the same sequence, the figures for UniProt Q9P2K3-3|Q9P2K3-4 were 0.98 ± 0.039 and 1 ± 0.048.
For NIT2 (UniProt Q9NQR4) the same measures were 0.998 ± 0.018 and 1.01 ± 0.018.
In the case of UniProt Q9NZD8 and related entries, the NP40-soluble protein abundance came to 0.989 ± 0.026 (concentration: 0.1mM) and 0.978 ± 0.022 (concentration: 0.5mM).
For UniProt Q9P1Y5 and related entries the same measures were 1.01 ± 0.028 and 0.967 ± 0.044.
For UniProt Q9UBP0 and related entries the same measures were 1.11 ± 0.092 and 1.1 ± 0.071.
On to UniProt Q9P1W8 and related entries, for which the NP40-soluble protein abundance came to 1.014 ± 0.0077 (concentration: 0.1mM) and 0.998 ± 0.024 (concentration: 0.5mM).
For KIF13B (UniProt Q9NQT8) the same measures were 0.983 ± 0.026 and 0.961 ± 0.021.
For EIF2B3 (UniProt Q9NR50) the same measures were 0.986 ± 0.025 and 0.964 ± 0.026.
Taken in the same sequence, the figures for UniProt Q9NUQ3 were 0.995 ± 0.018 and 1.02 ± 0.052.
UniProt Q9NYR9 and related entries: the NP40-soluble protein abundance by setting is: (concentration: 0.1mM) 1.03 ± 0.033; (concentration: 0.5mM) 1.02 ± 0.016.
Taken in the same sequence, the figures for UniProt Q9NW68 and related entries were 0.972 ± 0.033 and 1.01 ± 0.032.
Turning to UniProt Q9P2R3 and related entries, the NP40-soluble protein abundance is 1.01 ± 0.011 (concentration: 0.1mM) and 0.988 ± 0.031 (concentration: 0.5mM).

For the origin of these results see the supplement of paper PMC6411743.
